Results taken from the supplement of paper PMC10849652.
The list shows a part of the results.

Amino acid sequences for entries named in this document (tags omitted). A change or cut given only in a name is not applied to a line headed by its entry.
UniProt O95551: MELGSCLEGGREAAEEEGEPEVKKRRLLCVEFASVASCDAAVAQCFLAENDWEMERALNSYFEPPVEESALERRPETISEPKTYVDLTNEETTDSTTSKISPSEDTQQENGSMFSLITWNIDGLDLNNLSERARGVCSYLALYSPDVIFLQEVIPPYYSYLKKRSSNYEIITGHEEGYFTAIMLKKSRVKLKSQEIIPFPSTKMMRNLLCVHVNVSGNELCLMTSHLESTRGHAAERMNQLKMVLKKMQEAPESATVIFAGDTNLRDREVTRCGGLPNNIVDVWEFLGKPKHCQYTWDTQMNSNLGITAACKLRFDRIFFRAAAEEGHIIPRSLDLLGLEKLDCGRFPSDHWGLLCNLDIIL
UniProt Q5JUR7: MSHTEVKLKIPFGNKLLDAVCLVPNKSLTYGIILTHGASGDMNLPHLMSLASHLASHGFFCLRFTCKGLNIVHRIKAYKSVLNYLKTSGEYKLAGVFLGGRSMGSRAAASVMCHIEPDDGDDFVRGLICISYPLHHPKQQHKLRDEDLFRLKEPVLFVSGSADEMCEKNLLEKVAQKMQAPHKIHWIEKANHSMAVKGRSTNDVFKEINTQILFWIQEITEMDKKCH
UniProt Q9Y5J9: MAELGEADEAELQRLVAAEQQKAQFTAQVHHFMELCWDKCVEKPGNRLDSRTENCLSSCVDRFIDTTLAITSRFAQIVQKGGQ
UniProt Q9NU19: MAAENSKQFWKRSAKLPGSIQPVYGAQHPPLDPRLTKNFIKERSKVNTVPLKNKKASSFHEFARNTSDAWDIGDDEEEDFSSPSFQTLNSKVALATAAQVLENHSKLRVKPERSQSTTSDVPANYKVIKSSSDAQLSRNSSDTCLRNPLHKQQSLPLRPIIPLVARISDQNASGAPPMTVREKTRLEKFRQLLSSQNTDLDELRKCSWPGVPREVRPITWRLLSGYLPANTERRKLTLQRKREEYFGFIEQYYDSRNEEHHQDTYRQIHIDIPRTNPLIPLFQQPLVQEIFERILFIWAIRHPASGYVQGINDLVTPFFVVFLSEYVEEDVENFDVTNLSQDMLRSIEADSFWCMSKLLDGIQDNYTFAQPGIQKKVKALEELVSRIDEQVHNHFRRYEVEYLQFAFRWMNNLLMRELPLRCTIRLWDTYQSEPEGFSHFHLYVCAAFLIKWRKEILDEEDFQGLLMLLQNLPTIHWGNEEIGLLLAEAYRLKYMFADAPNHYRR
UniProt P04183: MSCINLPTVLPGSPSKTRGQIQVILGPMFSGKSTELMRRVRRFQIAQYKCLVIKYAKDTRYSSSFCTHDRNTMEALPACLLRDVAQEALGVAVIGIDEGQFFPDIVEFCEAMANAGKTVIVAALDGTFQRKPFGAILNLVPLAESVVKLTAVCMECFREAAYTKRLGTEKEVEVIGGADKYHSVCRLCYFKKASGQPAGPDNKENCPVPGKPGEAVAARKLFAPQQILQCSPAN
UniProt Q00059: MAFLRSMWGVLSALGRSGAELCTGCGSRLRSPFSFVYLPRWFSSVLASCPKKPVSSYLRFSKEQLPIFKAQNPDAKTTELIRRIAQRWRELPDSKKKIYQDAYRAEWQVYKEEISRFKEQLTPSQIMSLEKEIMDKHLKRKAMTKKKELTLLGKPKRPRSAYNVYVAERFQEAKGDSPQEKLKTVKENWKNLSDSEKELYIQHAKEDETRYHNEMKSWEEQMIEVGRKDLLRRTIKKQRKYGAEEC
UniProt Q15813: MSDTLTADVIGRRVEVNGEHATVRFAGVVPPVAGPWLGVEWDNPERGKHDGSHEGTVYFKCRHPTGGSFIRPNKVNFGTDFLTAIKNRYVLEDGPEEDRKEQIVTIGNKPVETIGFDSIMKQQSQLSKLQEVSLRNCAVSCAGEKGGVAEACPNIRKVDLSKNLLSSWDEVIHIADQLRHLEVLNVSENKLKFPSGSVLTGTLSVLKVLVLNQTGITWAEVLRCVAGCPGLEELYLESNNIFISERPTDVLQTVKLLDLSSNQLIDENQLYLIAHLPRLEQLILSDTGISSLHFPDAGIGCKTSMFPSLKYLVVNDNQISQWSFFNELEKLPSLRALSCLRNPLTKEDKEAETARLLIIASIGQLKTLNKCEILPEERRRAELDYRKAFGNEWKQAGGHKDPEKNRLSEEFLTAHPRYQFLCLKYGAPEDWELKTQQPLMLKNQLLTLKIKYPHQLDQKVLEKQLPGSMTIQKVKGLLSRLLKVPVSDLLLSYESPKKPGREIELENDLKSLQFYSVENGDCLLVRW
UniProt Q9BQ70: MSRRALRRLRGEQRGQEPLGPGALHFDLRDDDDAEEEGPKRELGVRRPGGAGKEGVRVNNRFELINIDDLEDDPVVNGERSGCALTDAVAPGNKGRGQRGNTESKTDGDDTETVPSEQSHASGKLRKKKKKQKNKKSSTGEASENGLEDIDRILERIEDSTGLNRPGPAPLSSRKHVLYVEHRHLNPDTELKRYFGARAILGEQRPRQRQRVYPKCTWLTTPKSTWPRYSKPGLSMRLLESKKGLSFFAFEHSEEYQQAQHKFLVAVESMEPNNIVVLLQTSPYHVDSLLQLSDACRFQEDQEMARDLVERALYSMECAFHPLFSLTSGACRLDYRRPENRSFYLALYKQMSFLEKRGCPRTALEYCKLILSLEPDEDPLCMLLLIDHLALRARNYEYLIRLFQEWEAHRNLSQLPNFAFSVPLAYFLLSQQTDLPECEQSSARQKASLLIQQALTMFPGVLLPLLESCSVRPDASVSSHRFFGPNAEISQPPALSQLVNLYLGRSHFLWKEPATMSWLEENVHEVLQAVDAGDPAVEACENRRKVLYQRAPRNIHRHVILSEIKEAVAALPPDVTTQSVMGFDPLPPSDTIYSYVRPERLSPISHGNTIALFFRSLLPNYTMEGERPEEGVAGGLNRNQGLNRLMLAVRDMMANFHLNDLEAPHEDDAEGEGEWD
UniProt Q5VWP2: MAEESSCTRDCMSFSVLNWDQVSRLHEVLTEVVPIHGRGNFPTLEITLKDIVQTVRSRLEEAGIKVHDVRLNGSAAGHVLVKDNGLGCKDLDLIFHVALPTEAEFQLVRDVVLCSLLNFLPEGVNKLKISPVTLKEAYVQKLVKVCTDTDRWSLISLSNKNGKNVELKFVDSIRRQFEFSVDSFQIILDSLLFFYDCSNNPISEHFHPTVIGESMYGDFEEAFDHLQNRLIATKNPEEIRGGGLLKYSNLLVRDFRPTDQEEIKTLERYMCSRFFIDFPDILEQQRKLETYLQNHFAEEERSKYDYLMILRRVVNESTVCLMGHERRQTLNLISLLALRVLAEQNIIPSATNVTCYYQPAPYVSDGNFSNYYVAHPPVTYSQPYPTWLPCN
UniProt Q66K14, whole entry, looked up: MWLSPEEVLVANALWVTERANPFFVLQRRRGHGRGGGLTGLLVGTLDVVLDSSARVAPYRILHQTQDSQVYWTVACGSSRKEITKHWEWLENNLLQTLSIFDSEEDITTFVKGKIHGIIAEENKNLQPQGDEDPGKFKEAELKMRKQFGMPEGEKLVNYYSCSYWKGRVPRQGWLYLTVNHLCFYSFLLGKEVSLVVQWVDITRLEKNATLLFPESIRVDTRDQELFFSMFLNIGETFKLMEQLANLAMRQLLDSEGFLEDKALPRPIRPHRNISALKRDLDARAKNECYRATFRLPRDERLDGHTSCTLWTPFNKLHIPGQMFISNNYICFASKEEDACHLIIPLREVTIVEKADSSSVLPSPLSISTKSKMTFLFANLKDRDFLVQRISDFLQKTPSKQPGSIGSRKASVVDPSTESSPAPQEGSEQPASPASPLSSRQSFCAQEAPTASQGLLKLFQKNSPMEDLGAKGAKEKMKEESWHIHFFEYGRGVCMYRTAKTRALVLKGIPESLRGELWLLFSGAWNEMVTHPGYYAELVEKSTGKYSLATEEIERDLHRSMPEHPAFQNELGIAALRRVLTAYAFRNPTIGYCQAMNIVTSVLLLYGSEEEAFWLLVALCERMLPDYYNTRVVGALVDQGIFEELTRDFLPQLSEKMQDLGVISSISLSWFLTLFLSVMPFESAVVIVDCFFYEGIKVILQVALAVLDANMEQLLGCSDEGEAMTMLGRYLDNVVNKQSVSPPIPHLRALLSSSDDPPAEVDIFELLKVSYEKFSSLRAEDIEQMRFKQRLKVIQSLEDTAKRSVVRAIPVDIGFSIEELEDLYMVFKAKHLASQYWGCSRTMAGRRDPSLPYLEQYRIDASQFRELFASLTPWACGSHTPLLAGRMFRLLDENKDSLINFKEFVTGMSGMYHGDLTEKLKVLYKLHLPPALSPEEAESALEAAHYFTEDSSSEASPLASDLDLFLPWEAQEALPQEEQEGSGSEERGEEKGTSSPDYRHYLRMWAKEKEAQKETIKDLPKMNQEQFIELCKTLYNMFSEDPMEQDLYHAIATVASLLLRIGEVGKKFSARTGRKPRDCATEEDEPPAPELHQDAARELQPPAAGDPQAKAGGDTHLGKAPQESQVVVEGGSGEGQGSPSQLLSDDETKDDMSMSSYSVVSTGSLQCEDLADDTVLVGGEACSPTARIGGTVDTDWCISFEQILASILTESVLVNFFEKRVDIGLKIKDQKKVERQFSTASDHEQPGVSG
UniProt P20226, whole entry, looked up: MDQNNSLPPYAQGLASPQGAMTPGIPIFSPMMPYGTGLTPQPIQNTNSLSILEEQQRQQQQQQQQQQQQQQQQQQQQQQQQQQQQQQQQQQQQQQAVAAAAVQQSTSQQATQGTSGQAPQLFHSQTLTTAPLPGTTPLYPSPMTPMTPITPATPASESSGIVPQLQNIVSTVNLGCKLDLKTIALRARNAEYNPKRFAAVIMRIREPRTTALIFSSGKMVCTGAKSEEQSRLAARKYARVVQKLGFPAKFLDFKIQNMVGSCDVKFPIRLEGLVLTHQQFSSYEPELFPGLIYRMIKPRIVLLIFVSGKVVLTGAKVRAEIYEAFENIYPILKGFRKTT
UniProt Q6NUS6: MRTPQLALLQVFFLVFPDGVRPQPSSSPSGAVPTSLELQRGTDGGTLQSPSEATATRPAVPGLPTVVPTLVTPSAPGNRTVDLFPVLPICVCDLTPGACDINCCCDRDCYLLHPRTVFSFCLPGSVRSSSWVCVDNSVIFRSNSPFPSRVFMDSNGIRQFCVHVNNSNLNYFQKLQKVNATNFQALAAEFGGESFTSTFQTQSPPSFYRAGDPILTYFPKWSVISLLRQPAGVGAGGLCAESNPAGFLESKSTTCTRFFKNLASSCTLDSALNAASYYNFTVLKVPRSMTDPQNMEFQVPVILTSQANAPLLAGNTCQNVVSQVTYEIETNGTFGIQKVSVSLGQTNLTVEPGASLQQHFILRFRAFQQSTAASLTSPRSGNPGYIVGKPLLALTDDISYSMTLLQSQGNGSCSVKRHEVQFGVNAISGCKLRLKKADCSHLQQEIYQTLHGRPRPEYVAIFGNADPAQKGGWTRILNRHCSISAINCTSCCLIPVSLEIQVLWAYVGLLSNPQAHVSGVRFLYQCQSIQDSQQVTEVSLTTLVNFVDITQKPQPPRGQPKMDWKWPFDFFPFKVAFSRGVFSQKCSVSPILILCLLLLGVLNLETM
UniProt Q14186: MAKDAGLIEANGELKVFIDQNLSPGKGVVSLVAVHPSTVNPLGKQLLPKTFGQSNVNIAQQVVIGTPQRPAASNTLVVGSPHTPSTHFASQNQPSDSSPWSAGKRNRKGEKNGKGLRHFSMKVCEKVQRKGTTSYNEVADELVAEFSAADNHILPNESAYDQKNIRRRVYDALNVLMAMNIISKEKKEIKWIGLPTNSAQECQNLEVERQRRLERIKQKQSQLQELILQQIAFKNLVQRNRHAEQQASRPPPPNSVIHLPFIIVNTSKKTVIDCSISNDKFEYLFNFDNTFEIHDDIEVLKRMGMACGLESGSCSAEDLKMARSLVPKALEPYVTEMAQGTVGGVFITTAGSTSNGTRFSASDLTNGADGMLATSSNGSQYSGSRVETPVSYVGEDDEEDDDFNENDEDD
UniProt Q96J01: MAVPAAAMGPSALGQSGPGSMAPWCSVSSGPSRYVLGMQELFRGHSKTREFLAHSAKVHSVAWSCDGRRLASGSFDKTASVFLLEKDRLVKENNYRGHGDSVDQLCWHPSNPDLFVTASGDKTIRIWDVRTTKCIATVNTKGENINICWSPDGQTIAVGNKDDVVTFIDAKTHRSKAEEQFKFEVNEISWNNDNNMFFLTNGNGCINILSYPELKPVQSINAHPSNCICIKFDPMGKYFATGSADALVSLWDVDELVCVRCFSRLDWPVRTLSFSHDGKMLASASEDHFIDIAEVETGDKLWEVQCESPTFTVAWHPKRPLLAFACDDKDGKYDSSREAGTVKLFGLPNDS
UniProt Q9P0N9: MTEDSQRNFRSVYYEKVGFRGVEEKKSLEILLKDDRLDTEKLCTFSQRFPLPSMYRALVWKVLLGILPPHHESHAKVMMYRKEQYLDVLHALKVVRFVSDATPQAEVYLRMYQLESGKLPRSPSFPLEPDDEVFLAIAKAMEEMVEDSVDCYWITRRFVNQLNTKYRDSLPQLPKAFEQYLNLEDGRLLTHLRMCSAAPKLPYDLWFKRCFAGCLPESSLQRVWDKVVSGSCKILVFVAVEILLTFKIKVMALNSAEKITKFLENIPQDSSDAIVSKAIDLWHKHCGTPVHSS

Experiments:
Experiment in all cases: log2 fold change, soluble protein after heating vs DMSO (PISA); higher = thermal stabilisation; K562 cells, 10 uM, 30 min; active = over 0.2 and 3.5 SD of the protein, either way, in both replicates (recomputed)
[1] = compound: COC1=CC=C(C=C1)CN2C=CC3=C2C=C(C=C3)C(=O)NO
Method in brief: (§1)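 Thermal stability values are relative to control samples and come from duplicates. They are expressed as log2 fold changes. For measurement, K562 cells (2×10^6 cells/mL) received 10 μM compound for 30 min, and aliquots were heated for 3 min over 48°C-58°C, pooled, and extracted at 4°C in PBS with 0.5% NP-40. Soluble protein, the supernatant after 21,000xg for 90 min, was quantified by TMTpro 16plex LC-MS/MS with equalised channel sums.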

[2] = compound: CON(C)C(=O)N1N=C(c2cc(F)ccc2F)S[C@@]1(CCCN)c1ccccc1 [filanesib]
Method in brief: as §1

[3] = compound: CO[C@H]1C[C@@H]2CC[C@@H](C)[C@@](O)(O2)C(=O)C(=O)N2CCCC[C@H]2C(=O)O[C@H]([C@H](C)C[C@@H]2CC[C@H](n3cnnn3)[C@H](OC)C2)CC(=O)[C@H](C)/C=C(\C)[C@@H](O)[C@@H](OC)C(=O)[C@H](C)C[C@H](C)/C=C/C=C/C=C/1C [zotarolimus]
Method in brief: as §1

[4] = compound: COc1cc(C(=O)O)ccc1NC(=O)[C@@H]1N[C@@H](CC(C)(C)C)[C@](C#N)(c2ccc(Cl)cc2F)[C@H]1c1cccc(Cl)c1F [idasanutlin]
Method in brief: as §1

[5] = compound: COc1cc(Nc2ncc3c(n2)-c2ccc(Cl)cc2C(c2c(F)cccc2OC)=NC3)ccc1C(=O)O [alisertib]
Method in brief: as §1

[6] = compound: COc1cc2nc(-c3cc(F)ccc3O)nc(N[C@@H]3CNC[C@H]3C(C)(C)O)c2cc1OC
Method in brief: as §1

[7] = compound: COc1cc2ncnc(Nc3ccc(F)c(Cl)c3)c2cc1OCCCN1CCOCC1 [gefitinib]
Method in brief: as §1

[8] = compound: COc1cccc2cc(-c3nc([C@H]4CC[C@H](C(=O)O)CC4)n4ncnc(N)c34)[nH]c12
Method in brief: as §1

[9] = compound: CS(=O)(=O)CCNCc1ccc(-c2ccc3ncnc(Nc4ccc(OCc5cccc(F)c5)c(Cl)c4)c3c2)o1 [lapatinib]
Method in brief: as §1

[10] = compound: CS(=O)(=O)N1CCN(Cc2cc3nc(-c4cccc5[nH]ncc45)nc(N4CCOCC4)c3s2)CC1 [pictilisib]
Method in brief: as §1

| Target | log2 fold change [1] | log2 fold change [2] | log2 fold change [3] | log2 fold change [4] | log2 fold change [5] | log2 fold change [6] | log2 fold change [7] | log2 fold change [8] | log2 fold change [9] | log2 fold change [10] |
| --- | --- | --- | --- | --- | --- | --- | --- | --- | --- | --- |
| TBC1D5 isoform 2 (UniProt Q92609) | inactive: 0.048 | inactive: -0.01 | inactive: 0.048 | inactive: -0.052 | inactive: -0.021 | inactive: 0.006 | inactive: -0.031 | inactive: 0.003 | inactive: -0.062 | inactive: -0.091 |
| TDP2 isoform 2 (UniProt O95551) | inactive: -0.008 | inactive: -0.096 | inactive: 0 | inactive: -0.004 | inactive: -0.051 | inactive: 0.023 | inactive: 0.073 | inactive: 0.083 | inactive: 0.03 | inactive: 0.001 |
| THAP9 (UniProt Q9H5L6) | inactive: 0.434 |  | inactive: -0.139 | inactive: 0.008 | inactive: -0.068 |  | inactive: -0.142 | inactive: 0.011 |  |  |
| TEX30 (UniProt Q5JUR7) | inactive: -0.063 |  | inactive: 0.031 | inactive: -0.02 | inactive: 0.029 | inactive: 0.07 | inactive: -0.079 | inactive: 0.031 | inactive: -0.029 | inactive: 0.057 |
| TIMM8B (UniProt Q9Y5J9) | inactive: 0.476 | inactive: 0.084 | inactive: 0.071 | inactive: 0.031 | inactive: -0.116 | inactive: -0.227 | inactive: 0.025 | inactive: -0.044 | inactive: -0.074 | inactive: 0.014 |
| TES (UniProt Q9UGI8) | inactive: 0.019 | inactive: -0.033 | inactive: 0.006 | inactive: -0.038 | inactive: -0.039 | inactive: -0.01 | inactive: -0.017 | inactive: -0.013 | inactive: 0.012 | inactive: 0.022 |
| TBC1D22B (UniProt Q9NU19) | inactive: 0.279 | inactive: -0.076 | inactive: 0.036 | inactive: -0.236 | inactive: -0.134 | inactive: -0.005 | inactive: 0.025 | inactive: 0.043 | inactive: 0.022 | inactive: -0.006 |
| TEX2 isoform 2 (UniProt Q8IWB9) | inactive: -0.096 | inactive: 0.153 | inactive: 0.036 | inactive: 0.037 | inactive: -0.048 | inactive: 0.257 |  | inactive: -0.125 | inactive: -0.013 | inactive: -0.005 |
| TCERG1 (UniProt O14776) | inactive: 0.104 | inactive: -0.008 | inactive: 0.025 | inactive: -0.087 | inactive: 0.043 | inactive: 0.054 | inactive: 0.073 | inactive: -0.003 | inactive: -0.036 | inactive: 0 |
| TGFBI (UniProt Q15582) | inactive: 0.063 | inactive: -0.054 | active: -0.892 | inactive: 0.084 | inactive: -0.012 | inactive: -0.003 | inactive: -0.029 | inactive: 0.15 | inactive: 0.018 | inactive: -0.083 |
| TBC1D4 (UniProt O60343) | inactive: 0.031 | inactive: -0.065 | inactive: 0.033 | inactive: 0.01 | inactive: -0.005 | inactive: -0.004 | inactive: -0.049 | inactive: -0.015 | inactive: 0.019 | inactive: -0.029 |
| TK1 (UniProt P04183) | inactive: -0.012 | active: -0.258 | inactive: -0.023 | inactive: -0.011 | inactive: -0.034 | inactive: 0.021 | inactive: -0.018 | inactive: 0.073 | inactive: -0.009 | inactive: 0.045 |
| TFAM (UniProt Q00059) | inactive: -0.035 | inactive: 0.048 | inactive: 0.01 | inactive: 0.046 | inactive: -0.1 | inactive: 0.015 | inactive: -0.026 | inactive: -0.058 | inactive: -0.012 | inactive: -0.04 |
| TCOF1 isoform 6 (UniProt Q13428) | inactive: -0.318 | inactive: -0.087 | inactive: -0.062 |  | inactive: -0.263 |  | inactive: 0.028 | inactive: -0.105 |  |  |
| TBCE (UniProt Q15813) | inactive: 0.044 | inactive: 0.075 | inactive: 0.057 | inactive: 0.085 | inactive: -0.053 | inactive: 0.014 | inactive: 0.071 | inactive: -0.106 | inactive: 0.005 | inactive: 0.007 |
| TIMM29 (UniProt Q9BSF4) | inactive: -0.141 | inactive: 0.041 | inactive: -0.058 | inactive: -0.096 | inactive: 0.01 | inactive: 0.021 | inactive: 0.039 | inactive: 0.073 | inactive: 0.014 | inactive: 0.051 |

Looked up above.
Under log2 fold change [7], THAP9 (UniProt Q9H5L6) is entered as inactive: -0.142
Under log2 fold change [5], TEX30 (UniProt Q5JUR7) is entered as inactive: 0.029

Additional results follow.

| Target | log2 fold change [1] | log2 fold change [2] | log2 fold change [3] | log2 fold change [4] | log2 fold change [5] | log2 fold change [6] | log2 fold change [7] | log2 fold change [8] | log2 fold change [9] | log2 fold change [10] |
| --- | --- | --- | --- | --- | --- | --- | --- | --- | --- | --- |
| TCF25 (UniProt Q9BQ70) | inactive: 0.038 |  | inactive: -0.036 | inactive: -0.366 | inactive: 0.147 | inactive: -0.021 |  | inactive: -0.013 | inactive: 0.101 | inactive: -0.08 |
| TENT5C (UniProt Q5VWP2) | inactive: -0.133 | inactive: 0.049 | active: -0.56 |  | inactive: 0 | inactive: 0.075 | inactive: 0.002 | inactive: -0.021 | inactive: -0.092 | inactive: 0.168 |
| TIA1 (UniProt P31483) | inactive: 0.083 | inactive: 0.021 | inactive: -0.017 | inactive: 0.021 | inactive: -0.003 | inactive: 0.108 | inactive: 0.02 | inactive: 0.04 | inactive: -0.005 | inactive: -0.046 |
| TFCP2 (UniProt Q12800) | inactive: -0.062 | inactive: 0.04 | inactive: 0.118 |  |  |  | inactive: -0.023 |  |  | inactive: 0.05 |
| TBC1D9B (UniProt Q66K14) | inactive: -0.037 | inactive: 0.151 | inactive: 0.042 | inactive: -0.003 | inactive: 0.03 | inactive: -0.026 | inactive: -0.072 | inactive: 0.03 | inactive: -0.031 | inactive: 0.068 |
| TBC1D22A (UniProt Q8WUA7) | inactive: -0.13 | inactive: 0 | inactive: 0.008 | inactive: -0.028 | inactive: -0.017 | inactive: 0.015 | inactive: -0.013 | inactive: 0.095 | inactive: 0.031 | inactive: -0.029 |
| TET1 (UniProt Q8NFU7) | inactive: 0.424 | inactive: 0.055 | inactive: 0.023 | inactive: -0.12 | inactive: -0.141 | inactive: 0.321 | inactive: 0.058 | inactive: 0.153 | inactive: -0.11 | inactive: 0.042 |
| TBP (UniProt P20226) | inactive: -0.014 |  | inactive: -0.1 | inactive: -0.076 | inactive: 0.148 | inactive: 0.072 | inactive: 0.044 | inactive: 0.081 | inactive: 0.023 |  |
| TCTN3 (UniProt Q6NUS6) | inactive: -0.185 | inactive: 0.293 |  |  |  | inactive: -0.001 | inactive: 0.076 |  | inactive: 0.024 |  |
| TFDP1 (UniProt Q14186) | inactive: -0.031 | inactive: -0.074 |  | inactive: -0.027 | inactive: -0.027 | inactive: 0.037 | inactive: -0.011 | inactive: -0.035 | inactive: 0.017 | inactive: 0.021 |
| TCEAL1 isoform 2 (UniProt Q15170) | inactive: 0.022 | inactive: 0.277 | inactive: -0.234 |  |  | inactive: 0.149 |  |  | inactive: 0.051 | inactive: 0.013 |
| THOC3 (UniProt Q96J01) | inactive: 0.024 | inactive: -0.023 | inactive: 0.008 | inactive: 0.013 | inactive: -0.13 | inactive: -0.003 | inactive: 0.014 | inactive: 0.025 | inactive: 0.017 | inactive: 0.048 |
| TCF3 (UniProt P15923) | inactive: -0.009 | inactive: -0.067 | inactive: -0.079 | inactive: -0.027 | inactive: -0.058 | inactive: 0.028 | inactive: 0.023 | inactive: -0.027 | inactive: -0.013 | inactive: 0.063 |
| TBC1D2B (UniProt Q9UPU7) | inactive: -0.079 | inactive: 0.083 |  |  | inactive: -0.06 |  | inactive: 0.133 | inactive: 0.004 |  |  |
| TIFA (UniProt Q96CG3) | inactive: -0.068 | inactive: 0.036 | inactive: 0.242 |  |  | inactive: 0.1 |  |  | inactive: -0.015 | inactive: -0.05 |
| TBC1D7 (UniProt Q9P0N9) |  | inactive: 0.182 |  |  |  | inactive: 0.244 |  |  | inactive: -0.157 |  |
